Results are given in words; binding and its absence hold for the method and conditions named.
Tests used:
rhNotch1-Fc (human) [1] = biological target: rhNotch1-Fc (human) (UniProt P46531); test: condition: not printed on the sheet (the text gives a tested range of 3.125 to 100 nM); SPR (Biacore), 28042 captured as ligand, rhNotch1-Fc as sample at three dilutions, 25 C
rhNotch2-Fc (human) [2] = biological target: rhNotch2-Fc (human) (UniProt Q04721); test: SPR (Biacore T100), antibody captured, Notch-Fc injected
rhNotch1-Fc (human) [3] = biological target: rhNotch1-Fc (human) (UniProt P46531); test: as above
rhNotch2-Fc (human) [4] = biological target: rhNotch2-Fc (human) (UniProt Q04721); test: condition: not printed on the sheet (the text gives a tested range of 3.125 to 100 nM); SPR (Biacore), 28042 captured as ligand, rhNotch2-Fc as sample at three dilutions, 25 C

By UniProt entry, the sequences of proteins in these tests, tags left out. Residues count along the entry.
UniProt P46531, residues 19-1735: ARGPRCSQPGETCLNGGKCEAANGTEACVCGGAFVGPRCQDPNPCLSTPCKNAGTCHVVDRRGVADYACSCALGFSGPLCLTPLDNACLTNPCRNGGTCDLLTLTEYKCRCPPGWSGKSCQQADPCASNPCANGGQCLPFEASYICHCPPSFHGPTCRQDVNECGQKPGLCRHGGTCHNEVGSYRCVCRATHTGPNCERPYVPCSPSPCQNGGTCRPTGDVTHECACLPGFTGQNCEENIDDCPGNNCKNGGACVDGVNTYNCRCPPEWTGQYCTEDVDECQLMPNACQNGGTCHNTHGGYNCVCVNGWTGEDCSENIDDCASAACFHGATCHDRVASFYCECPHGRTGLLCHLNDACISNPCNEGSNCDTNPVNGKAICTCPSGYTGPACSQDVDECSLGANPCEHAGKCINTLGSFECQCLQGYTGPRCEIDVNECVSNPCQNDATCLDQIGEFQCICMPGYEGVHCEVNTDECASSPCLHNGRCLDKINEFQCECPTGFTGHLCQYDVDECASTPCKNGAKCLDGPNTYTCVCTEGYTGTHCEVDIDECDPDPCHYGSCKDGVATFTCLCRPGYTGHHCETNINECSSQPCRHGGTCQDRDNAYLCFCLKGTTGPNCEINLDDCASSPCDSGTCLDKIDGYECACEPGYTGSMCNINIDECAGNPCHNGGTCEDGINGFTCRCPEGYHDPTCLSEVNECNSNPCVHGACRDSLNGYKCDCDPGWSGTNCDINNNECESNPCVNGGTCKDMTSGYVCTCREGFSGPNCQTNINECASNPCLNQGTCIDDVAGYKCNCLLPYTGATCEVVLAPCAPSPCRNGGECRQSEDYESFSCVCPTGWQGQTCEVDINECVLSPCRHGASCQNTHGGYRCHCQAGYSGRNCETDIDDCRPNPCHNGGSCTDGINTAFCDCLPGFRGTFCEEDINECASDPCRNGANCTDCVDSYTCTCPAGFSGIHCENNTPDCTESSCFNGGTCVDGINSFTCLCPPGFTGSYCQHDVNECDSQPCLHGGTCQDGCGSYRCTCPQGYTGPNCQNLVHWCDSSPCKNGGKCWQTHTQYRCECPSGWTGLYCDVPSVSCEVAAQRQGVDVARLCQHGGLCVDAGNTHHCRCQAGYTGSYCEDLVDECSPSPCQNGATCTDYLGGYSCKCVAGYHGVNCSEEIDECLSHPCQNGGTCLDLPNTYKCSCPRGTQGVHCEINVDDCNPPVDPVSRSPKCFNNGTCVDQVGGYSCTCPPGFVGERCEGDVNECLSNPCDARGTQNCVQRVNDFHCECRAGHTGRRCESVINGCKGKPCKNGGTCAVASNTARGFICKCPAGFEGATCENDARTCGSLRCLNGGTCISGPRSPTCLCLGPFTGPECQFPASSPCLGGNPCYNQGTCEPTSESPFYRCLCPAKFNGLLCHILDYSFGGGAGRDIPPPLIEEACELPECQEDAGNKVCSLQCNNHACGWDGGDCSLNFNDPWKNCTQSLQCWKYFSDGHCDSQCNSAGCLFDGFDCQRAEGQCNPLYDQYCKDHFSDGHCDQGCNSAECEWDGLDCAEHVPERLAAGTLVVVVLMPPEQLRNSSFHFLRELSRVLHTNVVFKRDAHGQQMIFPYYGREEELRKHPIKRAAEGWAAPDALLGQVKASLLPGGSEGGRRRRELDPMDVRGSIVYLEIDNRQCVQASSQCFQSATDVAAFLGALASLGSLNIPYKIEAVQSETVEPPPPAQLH
UniProt Q04721, residues 26-1677: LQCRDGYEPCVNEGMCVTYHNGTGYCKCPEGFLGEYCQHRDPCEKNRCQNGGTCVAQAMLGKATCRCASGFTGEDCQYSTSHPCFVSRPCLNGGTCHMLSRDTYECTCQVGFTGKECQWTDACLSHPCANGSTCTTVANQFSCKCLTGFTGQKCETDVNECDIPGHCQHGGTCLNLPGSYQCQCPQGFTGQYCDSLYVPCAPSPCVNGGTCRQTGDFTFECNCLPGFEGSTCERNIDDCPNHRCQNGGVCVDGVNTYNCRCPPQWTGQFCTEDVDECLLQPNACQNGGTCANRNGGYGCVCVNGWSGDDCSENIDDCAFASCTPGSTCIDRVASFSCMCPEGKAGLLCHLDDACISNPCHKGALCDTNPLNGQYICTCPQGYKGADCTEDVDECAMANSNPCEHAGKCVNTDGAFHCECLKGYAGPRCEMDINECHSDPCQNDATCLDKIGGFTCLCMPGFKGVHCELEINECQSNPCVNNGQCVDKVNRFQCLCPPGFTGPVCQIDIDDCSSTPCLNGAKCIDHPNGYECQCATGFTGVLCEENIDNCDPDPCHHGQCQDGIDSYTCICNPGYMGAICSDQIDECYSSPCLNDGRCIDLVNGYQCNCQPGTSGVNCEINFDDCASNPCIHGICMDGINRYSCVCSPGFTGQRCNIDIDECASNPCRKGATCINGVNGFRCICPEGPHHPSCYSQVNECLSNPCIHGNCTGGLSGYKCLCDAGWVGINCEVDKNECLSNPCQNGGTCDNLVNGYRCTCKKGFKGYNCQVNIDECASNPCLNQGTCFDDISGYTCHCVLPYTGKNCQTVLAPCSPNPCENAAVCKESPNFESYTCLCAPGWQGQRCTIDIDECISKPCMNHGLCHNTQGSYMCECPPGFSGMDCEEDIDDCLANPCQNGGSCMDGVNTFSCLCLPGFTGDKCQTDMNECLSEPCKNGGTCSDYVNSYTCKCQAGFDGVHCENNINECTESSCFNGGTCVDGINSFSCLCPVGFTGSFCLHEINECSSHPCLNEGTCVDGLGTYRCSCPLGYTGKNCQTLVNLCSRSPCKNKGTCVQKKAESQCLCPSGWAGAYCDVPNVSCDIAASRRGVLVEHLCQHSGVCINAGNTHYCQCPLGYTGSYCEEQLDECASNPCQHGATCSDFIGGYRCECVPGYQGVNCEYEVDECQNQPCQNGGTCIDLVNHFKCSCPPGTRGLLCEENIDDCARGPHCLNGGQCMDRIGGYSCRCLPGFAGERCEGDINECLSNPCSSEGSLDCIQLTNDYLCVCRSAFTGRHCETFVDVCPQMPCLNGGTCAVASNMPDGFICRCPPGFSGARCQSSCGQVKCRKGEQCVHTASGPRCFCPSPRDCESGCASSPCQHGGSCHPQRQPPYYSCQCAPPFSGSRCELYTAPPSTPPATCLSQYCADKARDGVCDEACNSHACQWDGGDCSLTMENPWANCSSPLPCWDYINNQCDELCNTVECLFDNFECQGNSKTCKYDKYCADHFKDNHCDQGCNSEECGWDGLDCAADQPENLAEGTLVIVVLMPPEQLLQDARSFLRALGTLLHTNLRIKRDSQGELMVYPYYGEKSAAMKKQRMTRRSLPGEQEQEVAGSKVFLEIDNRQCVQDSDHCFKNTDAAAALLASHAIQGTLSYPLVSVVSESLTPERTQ

- binding (rhNotch1-Fc (human) [1]): no binding
- binding (rhNotch2-Fc (human) [2]): no binding (tested: 100 nM to 3.125 nM)
- binding (rhNotch1-Fc (human) [3]): no binding (tested: 100 nM to 3.125 nM)
- binding (rhNotch2-Fc (human) [4]): no binding
B1: 28042 antibody (antibody, human IgG1, kappa, V domains shown)
VH: EVQLLESGGGLVQPGGSLRLSCAASGFTFSDYMMSWVRQAPGKGLEWVSWIRSSGGTTLYADSVKGRFTISRDNSKNTLYLQMNSLRAEDTATYYCARVGGGTTGYAFDIWGQGTMVTVSS
VL: DIQMTQSPSSLSASVGDRVTITCRASQSISNYLNWYQQKPGKAPKLLIYGASSLQSGVPSRVSGTGSGTDFTLTISSLQPEDFATYYCQQSYSPSFTFGPGTKVDFER
